Results: US20030077800A1
These are yes or no findings as the source states them, for the method shown. For some assays here: Binding seen in cells or lysates may run through a third protein. Some entries that bind do so weakly or less than the wild type. For some assays here: Sequences can lack the tags named with a protein.

Amino acid sequences for entries named in this document (tags omitted). A change or cut given only in a name is not applied to a line headed by its entry. Residues count along the entry.
UniProt P10275: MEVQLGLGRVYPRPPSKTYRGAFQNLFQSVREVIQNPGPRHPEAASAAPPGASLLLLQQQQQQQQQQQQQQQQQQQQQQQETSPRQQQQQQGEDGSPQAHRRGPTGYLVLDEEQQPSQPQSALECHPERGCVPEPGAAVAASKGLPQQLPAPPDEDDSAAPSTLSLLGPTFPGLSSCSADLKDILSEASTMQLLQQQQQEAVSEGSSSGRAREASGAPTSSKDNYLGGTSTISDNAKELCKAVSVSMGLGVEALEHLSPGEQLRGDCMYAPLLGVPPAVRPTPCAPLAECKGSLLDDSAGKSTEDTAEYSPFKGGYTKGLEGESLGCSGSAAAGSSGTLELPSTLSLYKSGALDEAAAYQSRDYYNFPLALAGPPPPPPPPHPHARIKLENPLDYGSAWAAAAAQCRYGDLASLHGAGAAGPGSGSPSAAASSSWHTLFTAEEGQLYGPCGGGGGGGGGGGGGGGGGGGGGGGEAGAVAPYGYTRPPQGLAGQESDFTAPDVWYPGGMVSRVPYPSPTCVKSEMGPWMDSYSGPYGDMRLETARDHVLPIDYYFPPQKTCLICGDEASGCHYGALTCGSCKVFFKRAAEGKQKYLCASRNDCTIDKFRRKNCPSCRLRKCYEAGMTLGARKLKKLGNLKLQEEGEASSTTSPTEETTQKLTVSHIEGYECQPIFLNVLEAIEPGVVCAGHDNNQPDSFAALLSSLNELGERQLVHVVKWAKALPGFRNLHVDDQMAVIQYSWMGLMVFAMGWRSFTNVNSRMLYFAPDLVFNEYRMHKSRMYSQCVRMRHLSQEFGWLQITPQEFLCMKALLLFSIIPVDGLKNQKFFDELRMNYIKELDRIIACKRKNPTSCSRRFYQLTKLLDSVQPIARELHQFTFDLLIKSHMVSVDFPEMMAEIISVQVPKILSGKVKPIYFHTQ
GST-AR ZFR fusion protein: residues 555-645 of P10275

What was measured:
[1] = target: full-length AR fused to LexA (LexA-AR) (UniProt P10275); assay: yeast two-hybrid, L40 cells, with 50 nM testosterone
[2] = target: GST-AR ZFR fusion protein (UniProt P10275); assay: GST pull-down, 35S-labeled in vitro translated protein, SDS-PAGE and fluorography

B1: VP16 AD fused to ARIP4 (amino acids 86-227) (VP16 AD-ARIP4 ID) (protein)
chain: RHQGKILASEDPKKKRAQKPSHMRRNIRKLLREDQLEPVTKAAQQEELERRKRLEQQRKEYAAPIPTVPLEFLPEEIVLRASDGPQLPPRVLAQEVICLDSSSGSEDEKSSRDEVIELSSGEEDTLHIVDSSESVSEEDEEE
- binding [1]: binds

B2: Full-length ARIP4 labeled with [35S]methionine by translation in vitro (protein)
chain: MSDESASGSDPDLDPDVELEDEEEEEEEEEVAVEEHDRDDEEGLLDDTSLEGMCGTEHAQLGEDGQRPPRCTSTTSSQSEPSEQLRHQGKILASEDPKKKRAQKPSHMRRNIRKLLREDQLEPVTKAAQQEELERRKRLEQQRKEYAAPIPTVPLEFLPEEIVLRASDGPQLPPRVLAQEVICLDSSSGSEDEKSSRDEVIELSSGEEDTLHIVDSSESVSEEDEEEEKGGTHVNDALNQHDALGRVLVNLNHPPEEENVFLAPQLARAVKPHQIGGIRFLYDNLVESLERFKTSSGFGCILAHSMGLGKTLQVISFIDVLFRHTPAKTVLAIVPVNTLQNWLAEFNMWLPAPEALPADSKPEEVQPRFFKVHILNDEHKTVASRAKVTADWVSEGGVLLMGYEMYRLLTLKKSLATSRPKKTKKRSHPVIIDLDEEDRQQEFRREFEKALCRPGPDVVICDEGHRIKNCQASTSQALKNIRSRRRVVLTGYPLQNNLIEYWCMVDFVRPDFLGTRQEFSNMFERPILNGQCIDSTPQDVRLMRYRSHVLHSLLEGFVQRRGHTVLKIHLPAKEENVILVRLSQIQRDLYTQFMDRFRDCGTSGWLGLNPLKAFCVCCKIWNHPDVLYEALQKENLANEQDLDVEELGSAGTSARCPPHGTKVKGEDSALPSSMGEATNSKFLQGVGFNPFQERGNNIVTYEWAKELLTNYQTGVLENSPKMVLLFHLIEESVKLGDKILVFSQSLSTLALIEEFLGKRDMPCLPGAEGQGTQKWVRNVSYFRLDGSTPAFERERLINQFNDPSNLTTWLFLLSTRAGCLGVNLIGANRVVVFDASWNPCHDAQAVCRVYRYGQKKPCHIYRLVADYTLEKKIYDRQISKQGMSDRVVDDLNPMLNFTRKEVENLLHFVEKEPAPQTSLDIKGIKESVLQLACLKYPHLITKEPFEHESLLLNRKDHKLTKAEKKAAKKSYEEDKRTSVPYTRPSYAQYYPASDQSLTSIPAFSQRNWQPTLKGDEKPVASVRPVQSTPIPMMPRHVPLSGGVSSASSTNTSMNFPINYLQRAGVLVQKVVTTTDIVIPGLNSSTDVQARINAGESIHIIRGTKGTYIRTSDGRIFAVRATGKPKAPEDGRMAASGSQGPSLASTSNGRHSASSPKAPDPEGLARPVSPDSPEIISELQQYADVAAARESRQSSPSISAALPGPPGQLMDNSTIPGTALGTEPCLGGHCLNSSLLVTGQPSGGRHPVLDLRGHKRKLATPSVTQESIRRRSRKGHLPAPVQPYEHGYPVSGGFAMPPVSLNHNLTTPFTSQAGENSLFMGSNPSYYQLSNLLADARLVFPVTTDPLVPAGPVSSSSTATSVTASNPSFMLNPSVPGMLPSYSLPFSQPLLSEPRMFAPFPSPGLPSNLSRGVSVYPGYMSPHAGYPAGGLLRSQVPPFDSHEVAEVGFSSNDDEDKDDDVIEVTGK
modifications: [35S]methionine label
- binding [2]: binds
